Earlier results on one molecule are cited in patent US20240307370A1, “SIGMA RECEPTOR LIGANDS FOR TREATING SARS-COV-2 INFECTION” (University of Florida Research Foundation, Incorporated, priority 2021, published 2024).

≈ marks a conversion by molar mass, not a printed value.

This data set has as its system SARS-CoV-2. The note with it: earlier report, cited from earlier work.

Take `CN(C)CCOC(c1ccccc1)c1ccccc1` [diphenhydramine, reference compound]: the “EC50 by plaque reduction assay (recently shown)” value is 17.4 µg/mL (≈ 68.1 µM). Also, for the setting “read-out: EC50 by plaque reduction assay (recently shown)”, the EC50 – broadly, the concentration needed to bring the measured effect to its halfway point – was 59.6 µM.
